Measured values reported in PubChem BioAssay AID330 (DTP/NCI, 2004).
The list shows only some results of the screen, not a fair sample: it is rich in T/C values a quarter to a half above the control, in often repeated tests (any T/C) and in doses without a T/C. Other doses and runs of a compound stand elsewhere. T/C is the treated group as % of the vehicle group. Some doses have a count of surviving animals in place of a T/C: the source files T/C as zero there, which appears to mark a toxic dose or a test without result, not a measured value. Some doses without a T/C left all or most animals alive at the check, yet need not have been tolerated: survival well below the control is almost never listed, so the zero probably covers shortened survival too. Counts of survivors are from the toxicity check (mostly the fifth day) where no day follows; animals may have died later. Schedule codes are those of the source, read here as Q, the interval in days (D) or hours (H), X, the number of doses. Some entries hold several experiments; their values stand side by side, smallest first. Where survival is the endpoint, the PubChem record calls one and a half times the control and up active, and a quarter to a half above the control has no call in these data; cut-offs in other NCI protocols can differ.

Test system: P388 leukemia ip, CD2F1 mice, survival T/C
Experiment: NCI In Vivo Anticancer Drug Screen. Data for tumor model P388 Leukemia (intraperitoneal) in CD2F1 (CDF1) mice
Details: T/C endpoint: median survival time, higher T/C = longer survival
[1] = dose: 50.0 mg/kg/injection, schedule: Q01DX009 (ip), vehicle: saline with Tween-80
[2] = dose: 100.0 mg/kg/injection, schedule: Q01DX009 (ip), vehicle: saline with Tween-80
[3] = dose: 200.0 mg/kg/injection, schedule: Q01DX009 (ip), vehicle: saline with Tween-80
[4] = dose: 12.5 mg/kg/injection, schedule: Q01DX009 (ip), vehicle: saline with Tween-80
[5] = dose: 25.0 mg/kg/injection, schedule: Q01DX009 (ip), vehicle: saline with Tween-80
[6] = dose: 200.0 mg/kg/injection, schedule: Q01DX005 (ip), vehicle: Klucel (hydroxypropylcellulose) (HPC)
[7] = dose: 100.0 mg/kg/injection, schedule: Q01DX009 (ip), vehicle: Klucel (hydroxypropylcellulose) (HPC)
[8] = dose: 200.0 mg/kg/injection, schedule: Q01DX009 (ip), vehicle: Klucel (hydroxypropylcellulose) (HPC)
[9] = dose: 400.0 mg/kg/injection, schedule: Q01DX009 (ip), vehicle: Klucel (hydroxypropylcellulose) (HPC)
[10] = dose: 25.0 mg/kg/injection, schedule: Q01DX009 (ip), vehicle: water
[11] = dose: 50.0 mg/kg/injection, schedule: Q01DX009 (ip), vehicle: water

Compound: C[C@]12CC[C@H]3[C@@H](CCC4=CC(=O)CC[C@@H]43)[C@@H]1CC[C@@H]2OC(=O)N(CCCl)N=O
- T/C (dose: 15.0 mg/kg/injection, schedule: Q01DX009 (ip), vehicle: saline with Tween-80): 134 % of control
- T/C (dose: 30.0 mg/kg/injection, schedule: Q01DX009 (ip), vehicle: saline with Tween-80): 138 % of control
- survivor count (dose: 50.0 mg/kg/injection, schedule: Q01DX009 (ip), vehicle: other): 3 of 6
- survivor count [1]: 6 of 6
- T/C (dose: 60.0 mg/kg/injection, schedule: Q01DX009 (ip), vehicle: saline with Tween-80): 137 % of control
- survivor count (dose: 100.0 mg/kg/injection, schedule: Q01DX005 (ip), vehicle: other): 1 of 6
- survivor count [2]: 6 of 6
- T/C (dose: 120.0 mg/kg/injection, schedule: Q04DX003 (ip), vehicle: saline): 126 % of control
- survivor count [3]: 6 of 6

Compound: C/C(=N\NC(=S)N1CCN(c2ccccn2)CC1)c1ccccn1
- survivor count (dose: 50.0 mg/kg/injection, schedule: Q01DX005 (ip), vehicle: water): 2 of 6
- survivor count (dose: 100.0 mg/kg/injection, schedule: Q01DX005 (ip), vehicle: water): 0 of 6
- survivor count (dose: 200.0 mg/kg/injection, schedule: Q01DX005 (ip), vehicle: water): 0 of 6

Compound: O=c1c2ccccc2nc(-c2ccccc2Cl)n1/N=C/c1cccc([N+](=O)[O-])c1
- survivor count (dose: 6.25 mg/kg/injection, schedule: Q01DX009 (ip), vehicle: saline with Tween-80): 5 of 6
- survivor count [4]: 6 of 6
- survivor count [5]: 6 of 6

Compound: COc1ccc(-c2coc3c4c(c(CC=C(C)C)c(OC)c3c2=O)OC(C)(C)C=C4)cc1OC
- survivor count (dose: 100.0 mg/kg/injection, schedule: Q01DX005 (ip), vehicle: saline with Tween-80): 5 of 5
- survivor count (dose: 200.0 mg/kg/injection, schedule: Q01DX005 (ip), vehicle: saline with Tween-80): 5 of 5

Compound: CCN(CC)CCNc1ccc(COC(=O)NC)c2oc3ccc(OC(=O)NC)cc3c(=O)c12
- T/C (dose: 6.25 mg/kg/injection, schedule: Q01DX005 (ip), vehicle: Klucel (hydroxypropylcellulose) (HPC)): 133 % of control
- T/C (dose: 12.5 mg/kg/injection, schedule: Q01DX005 (ip), vehicle: Klucel (hydroxypropylcellulose) (HPC)): 133 % of control
- survivor count (dose: 25.0 mg/kg/injection, schedule: Q01DX005 (ip), vehicle: Klucel (hydroxypropylcellulose) (HPC)): 4 of 5 and 5 of 6
- survivor count (dose: 50.0 mg/kg/injection, schedule: Q01DX005 (ip), vehicle: Klucel (hydroxypropylcellulose) (HPC)): 3 of 6
- survivor count (dose: 100.0 mg/kg/injection, schedule: Q01DX005 (ip), vehicle: Klucel (hydroxypropylcellulose) (HPC)): 0 of 6
- survivor count [6]: 0 of 6

Compound: CCCCCCCCCCCCNC(=O)[C@@]1(O)[C@H](O)C2(CC)C=CCN3CCC4(c5cc([C@@]6(C(=O)OC)CC7CN(CCc8c6[nH]c6ccccc86)C[C@](O)(CC)C7)c(OC)cc5N(C)[C@H]41)C32 (stereo not given in full)
- T/C (dose: 18.0 mg/kg/injection, schedule: Q01DX005 (ip), vehicle: saline): 135 % of control

Compound: CCCCCCCCCCCCCC[N+](C)([O-])CCCCCC[N+](C)([O-])CCCCCCCCCCCCCC (stereo not given)
- survivor count [7]: 0 of 6
- survivor count [8]: 0 of 6

Compound: Cc1cc(C)c(C#N)c(SCC#CCSc2nc(C)cc(C)c2C#N)n1
- survivor count (dose: 12.5 mg/kg/injection, schedule: Q01DX005 (ip), vehicle: saline with Tween-80): 5 of 5
- survivor count (dose: 25.0 mg/kg/injection, schedule: Q01DX005 (ip), vehicle: saline with Tween-80): 5 of 5
- survivor count (dose: 50.0 mg/kg/injection, schedule: Q01DX005 (ip), vehicle: saline with Tween-80): 5 of 5

Compound: CNC(=O)NCCCCCCNC(=O)NC
- survivor count [6]: 0 of 6
- survivor count (dose: 400.0 mg/kg/injection, schedule: Q01DX005 (ip), vehicle: Klucel (hydroxypropylcellulose) (HPC)): 0 of 6

Compound: O=C(O)CCCCCCCCCCNC(=O)CCl
- survivor count [8]: 1 of 6

Compound: CCCCCCc1cc(-c2cc(CCCCCC)nc(N)n2)nc(N)n1
- survivor count (dose: 240.0 mg/kg/injection, schedule: Q01DX005 (ip), vehicle: saline): 3 of 6

Compound: c1ccc([N-][n+]2ccc3ccccc3c2)cc1
- survivor count (dose: 50.0 mg/kg/injection, schedule: Q01DX009 (ip), vehicle: saline): 0 of 6
- survivor count (dose: 100.0 mg/kg/injection, schedule: Q01DX009 (ip), vehicle: saline): 0 of 6
- survivor count (dose: 200.0 mg/kg/injection, schedule: Q01DX009 (ip), vehicle: saline): 0 of 6

Compound: CN=C(NN(C)C)c1ccc(NC(=O)c2ccc(C(=O)Nc3ccc(C(=NC)NN(C)C)cc3)cc2)cc1
- T/C (dose: 6.6 mg/kg/injection, schedule: Q01DX009 (ip), vehicle: saline with Tween-80): 127 and 130 % of control
- T/C (dose: 9.9 mg/kg/injection, schedule: Q01DX009 (ip), vehicle: saline with Tween-80): 131 % of control
- T/C (dose: 13.2 mg/kg/injection, schedule: Q01DX009 (ip), vehicle: saline with Tween-80): 130 % of control
- survivor count (dose: 20.0 mg/kg/injection, schedule: Q04DX003 (ip), vehicle: saline with Tween-80): 5 of 6
- T/C (dose: 20.0 mg/kg/injection, schedule: Q04DX003 (ip), vehicle: saline): 129 % of control
- survivor count (dose: 30.0 mg/kg/injection, schedule: Q04DX003 (ip), vehicle: saline with Tween-80): 1 of 6
- survivor count (dose: 40.0 mg/kg/injection, schedule: Q04DX003 (ip), vehicle: saline): 0 of 6
- survivor count (dose: 80.0 mg/kg/injection, schedule: Q04DX003 (ip), vehicle: saline): 0 of 6

Compound: Cc1c2ccn3c(=O)c4ccccc4cc3c2c(C)c2c1[nH]c1ccccc12
- survivor count (dose: 3.13 mg/kg/injection, schedule: Q04DX003 (ip), vehicle: distilled water + Tween-80): 6 of 6
- survivor count (dose: 6.25 mg/kg/injection, schedule: Q04DX003 (ip), vehicle: distilled water + Tween-80): 6 of 6
- survivor count (dose: 12.5 mg/kg/injection, schedule: Q04DX003 (ip), vehicle: distilled water + Tween-80): 6 of 6
- survivor count (dose: 25.0 mg/kg/injection, schedule: Q04DX003 (ip), vehicle: distilled water + Tween-80): 5 of 6
- survivor count (dose: 50.0 mg/kg/injection, schedule: Q04DX003 (ip), vehicle: distilled water + Tween-80): 6 of 6
- survivor count (dose: 100.0 mg/kg/injection, schedule: Q04DX003 (ip), vehicle: distilled water + Tween-80): 5 of 6

Compound: O=C(O)/C(=C\c1c(Cl)n(-c2ccccc2)c2ccccc12)NC(=O)c1ccccc1
- survivor count (dose: 400.0 mg/kg/injection, schedule: Q01DX001 (ip), vehicle: saline with Tween-80): 0 of 6

Compound: Cc1cc(NC(=S)SCc2ccc3c(c2)OCO3)ccc1Cl
- T/C (dose: 50.0 mg/kg/injection, schedule: Q01DX009 (ip), vehicle: Klucel (hydroxypropylcellulose) (HPC)): 129 % of control
- T/C [7]: 129 % of control
- T/C [8]: 131 % of control
- survivor count [9]: 3 of 6

Compound: CC(=O)Oc1ccccc1
- survivor count (dose: 200.0 mg/kg/injection, schedule: Q04DX003 (ip), vehicle: saline with Tween-80): 0 of 6
- survivor count (dose: 400.0 mg/kg/injection, schedule: Q04DX003 (ip), vehicle: saline with Tween-80): 1 of 6

Compound: [S-]c1n[n+](-c2ccccc2)c(-c2ccccc2)s1
- survivor count (dose: 400.0 mg/kg/injection, schedule: Q01DX009 (ip), vehicle: saline with Tween-80): 5 of 6

Compound: Cc1cc(=O)n2c3c(c4c(cc13)c(CN(C)C)cc(=O)n4C)OC2
- T/C [4]: 133 % of control
- T/C [5]: 127 % of control
- T/C [1]: 130 % of control
- survivor count [2]: 1 of 6
- survivor count [3]: 0 of 6

Compound: N#Cc1ccc(NN=O)cc1
- T/C [10]: 129 % of control
- T/C [11]: 126 and 133 % of control
- survivor count (dose: 200.0 mg/kg/injection, schedule: Q01DX009 (ip), vehicle: water): 0 of 6

Compound: COc1ccc(CSC(=S)Nc2ccc(Cl)c(Cl)c2)cc1
- survivor count [8]: 6 of 6
- survivor count [9]: 3 of 6

Compound: CC(=O)ON1C(=O)C=CC1=O
- survivor count [10]: 6 of 6
- survivor count [11]: 6 of 6
